Results from PMC2775934.
No constants are given. Whether binding was seen depends on the method and setting. Binding seen in cells or lysates may run through a third protein. Binding calls can cover weak binding; strength is not graded here.

Target: T1, protein kinase D1 (human (endogenous in MCF-7)) (UniProt Q15139)
T1 sequence: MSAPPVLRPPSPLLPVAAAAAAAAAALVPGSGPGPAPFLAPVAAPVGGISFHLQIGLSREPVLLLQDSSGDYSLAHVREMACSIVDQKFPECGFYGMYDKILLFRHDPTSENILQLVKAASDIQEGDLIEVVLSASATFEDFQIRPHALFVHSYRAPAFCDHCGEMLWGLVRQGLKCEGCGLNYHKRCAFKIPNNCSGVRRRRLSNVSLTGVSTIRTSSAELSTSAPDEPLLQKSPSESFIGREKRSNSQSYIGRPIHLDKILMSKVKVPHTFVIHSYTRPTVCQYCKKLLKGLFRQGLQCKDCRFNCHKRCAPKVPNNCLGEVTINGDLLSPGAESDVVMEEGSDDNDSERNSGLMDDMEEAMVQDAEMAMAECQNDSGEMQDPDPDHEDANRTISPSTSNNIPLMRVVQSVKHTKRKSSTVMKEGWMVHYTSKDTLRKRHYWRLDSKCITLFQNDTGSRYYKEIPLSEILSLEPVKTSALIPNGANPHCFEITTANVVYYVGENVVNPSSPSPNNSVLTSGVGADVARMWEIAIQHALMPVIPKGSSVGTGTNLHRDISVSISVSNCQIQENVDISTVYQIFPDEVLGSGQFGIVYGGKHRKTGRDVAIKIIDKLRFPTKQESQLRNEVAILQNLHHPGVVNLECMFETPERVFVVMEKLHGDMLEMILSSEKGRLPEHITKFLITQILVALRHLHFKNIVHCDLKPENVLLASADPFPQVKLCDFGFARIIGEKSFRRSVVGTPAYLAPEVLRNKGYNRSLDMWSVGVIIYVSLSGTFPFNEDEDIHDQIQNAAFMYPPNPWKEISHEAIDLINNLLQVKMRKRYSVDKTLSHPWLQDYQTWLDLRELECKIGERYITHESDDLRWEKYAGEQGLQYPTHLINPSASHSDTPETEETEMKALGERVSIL
Assay: co-IP; anti-PKD1 immunoprecipitates (1 hour, 4°C, Protein G Sepharose) of soluble lysates in 25 mM Tris-HCl pH 7.4, 150 mM NaCl, 1% Triton X-100, blotted for E-cadherin; MCF-7 cells treated with cathepsin G for 10 hours

binding: binds
Substance: E-cadherin (human (endogenous in MCF-7))
